PubChem BioAssay AID248 (DTP/NCI, 2004)
The list shows only some results of the screen, not a fair sample: it is rich in T/C values a quarter to a half above the control, in often repeated tests (any T/C) and in doses without a T/C. Further doses and runs are listed elsewhere. T/C gives the treated animals as a percentage of the vehicle group. Some entries give survivors of the animals treated and no T/C: the source files T/C as zero there, which appears to mark a toxic dose or a test without result, not a measured value. Some survivor counts are full or nearly so, which does not show that the dose was tolerated: survival well below the control is almost never listed, so the zero probably covers shortened survival too. Counts of survivors are from the toxicity check (mostly the fifth day) where no day follows; animals may have died later. Schedules are NCI's codes, taken here to give the interval after Q, in days (D) or hours (H), and the number of doses after X. Some schedules carry Z or #; the key to these is not given. Some molecules as drawn cover several salts, stereoisomers or complexes of the source; a dose is that of the sample tested. Counts like (3×) count equal records among those shown. Some doses were run more than once; the values are given in rising order. For survival time, this PubChem deposit counts one and a half times the control or more as active, and values a quarter to a half above the control carry no call in these data; other NCI protocols may use other cut-offs.

Test system: L1210 leukemia ip in BDF1 mice, survival T/C
Assay: NCI In Vivo Anticancer Drug Screen. Data for tumor model L1210 Leukemia (intraperitoneal) in B6D2F1 (BDF1) mice
Settings: T/C endpoint: mean survival time, higher T/C = longer survival
[1] = dose: 20.0 mg/kg/injection, schedule: Q01DX001 (ip), vehicle: saline
[2] = dose: 40.0 mg/kg/injection, schedule: Q01DX001 (ip), vehicle: saline
[3] = dose: 80.0 mg/kg/injection, schedule: Q01DX001 (ip), vehicle: saline
[4] = dose: 200.0 mg/kg/injection, schedule: Q01DX009 (ip), vehicle: saline with Tween-80
[5] = dose: 200.0 mg/kg/injection, schedule: Q01DX001 (ip), vehicle: saline
[6] = dose: 400.0 mg/kg/injection, schedule: Q01DX001 (ip), vehicle: saline
[7] = dose: 75.0 mg/kg/injection, schedule: Q01DX001 (ip), vehicle: saline
[8] = dose: 150.0 mg/kg/injection, schedule: Q01DX001 (ip), vehicle: saline
[9] = dose: 300.0 mg/kg/injection, schedule: Q01DX001 (ip), vehicle: saline

SMILES: CN(c1ccccc1)P(=O)(N1CC1)N1CC1
- T/C (dose: 10.0 mg/kg/injection, schedule: Q01DX009 (ip), vehicle: carboxymethylcellulose (CMC)): 130 % of control
- T/C (dose: 22.0 mg/kg/injection, schedule: Q01DX001 (ip), vehicle: carboxymethylcellulose (CMC)): 139 % of control
- T/C (dose: 25.0 mg/kg/injection, schedule: Q01DX001 (ip), vehicle: carboxymethylcellulose (CMC)): 142 % of control
- T/C (dose: 33.0 mg/kg/injection, schedule: Q01DX001 (ip), vehicle: carboxymethylcellulose (CMC)): 134 % of control
- T/C (dose: 50.0 mg/kg/injection, schedule: Q01DX001 (ip), vehicle: carboxymethylcellulose (CMC), evaluated on day 30): 148 % of control
- T/C (dose: 50.0 mg/kg/injection, schedule: Q01DX001 (ip), vehicle: carboxymethylcellulose (CMC), run until all animals had died): 149 % of control
- survivor count (dose: 75.0 mg/kg/injection, schedule: Q01DX001 (ip), vehicle: carboxymethylcellulose (CMC)): 4 of 6
- survivor count (dose: 100.0 mg/kg/injection, schedule: Q01DX001 (ip), vehicle: carboxymethylcellulose (CMC)): 2 of 6
- survivor count (dose: 200.0 mg/kg/injection, schedule: Q01DX001 (ip), vehicle: carboxymethylcellulose (CMC)): 4 of 6
- survivor count (dose: 400.0 mg/kg/injection, schedule: Q01DX001 (ip), vehicle: carboxymethylcellulose (CMC)): 4 of 6

SMILES: CC(CC(=O)O)[Se][Se]C(C)CC(=O)O (stereo unspecified)
- survivor count (dose: 400.0 mg/kg/injection, schedule: Q01DX001 (ip), vehicle: Klucel (hydroxypropylcellulose) (HPC)): 0 of 5
- survivor count (dose: 600.0 mg/kg/injection, schedule: Q01DX001 (ip), vehicle: Klucel (hydroxypropylcellulose) (HPC)): 0 of 5

SMILES: CC[N+](C)(CC)CCN1C(=O)c2ccccc2S1(=O)=O
- survivor count (dose: 100.0 mg/kg/injection, schedule: Q01DX Z (ip), vehicle: saline): 1 of 6

SMILES: CC(=O)NC1=C(S(=O)(=O)O)c2ccccc2C1
- survivor count (dose: 200.0 mg/kg/injection, schedule: Q04DX002 (ip), vehicle: saline): 3 of 3

SMILES: Cn1c(Cc2ccccc2)nc(=O)c2ccccc21
- survivor count (dose: 75.0 mg/kg/injection, schedule: Q01DX001 (ip), vehicle: acetone): 1 of 6
- survivor count (dose: 150.0 mg/kg/injection, schedule: Q01DX001 (ip), vehicle: acetone): 0 of 6
- survivor count (dose: 300.0 mg/kg/injection, schedule: Q01DX001 (ip), vehicle: acetone): 0 of 6

SMILES: OC1CCCC[CH]1[Hg][Cl] (stereo unspecified)
- survivor count (dose: 10.0 mg/kg/injection, schedule: Q01DX001 (ip), vehicle: saline): 2 of 6
- survivor count [1]: 1 of 6
- survivor count [2]: 0 of 6
- survivor count [3]: 1 of 6

SMILES: CCN(CC)CC(Cl)CN(CC)CC
- survivor count [4]: 1 of 6
- survivor count (dose: 400.0 mg/kg/injection, schedule: Q04DX003 (ip), vehicle: saline with Tween-80): 1 of 6

SMILES: c1ccc(N2CCNCC2)cc1 (tested in a mixture with another compound)
- survivor count [3]: 3 of 6 (2×)
- survivor count (dose: 100.0 mg/kg/injection, schedule: Q01DX001 (ip), vehicle: saline): 1 of 4 (3×)
- survivor count [5]: 0 of 4 (2×) and 1 of 4
- survivor count [6]: 0 of 4 (4×)

SMILES: CCNNC
- survivor count (dose: 400.0 mg/kg/injection, schedule: Q04DX003 (ip), vehicle: saline): 3 of 6

SMILES: CC(=O)Nc1nnc(Sc2n[nH]c(=O)[nH]c2=O)s1
- survivor count [1]: 1 of 6
- survivor count [2]: 3 of 6
- survivor count [7]: 1 of 6
- survivor count [8]: 0 of 6
- survivor count [9]: 0 of 6

SMILES: CCN(CC)C(C)CNc1cc(C)nc(/N=C(\N)Nc2ccc(Cl)c(Cl)c2)n1 (stereo unspecified)
- survivor count (dose: 18.75 mg/kg/injection, schedule: Q01DX009 (ip), vehicle: Klucel (hydroxypropylcellulose) (HPC)): 4 of 6
- survivor count (dose: 37.5 mg/kg/injection, schedule: Q01DX009 (ip), vehicle: Klucel (hydroxypropylcellulose) (HPC)): 4 of 6
- survivor count (dose: 75.0 mg/kg/injection, schedule: Q01DX009 (ip), vehicle: Klucel (hydroxypropylcellulose) (HPC)): 0 of 6
- survivor count (dose: 150.0 mg/kg/injection, schedule: Q01DX001 (ip), vehicle: other): 1 of 6
- survivor count (dose: 150.0 mg/kg/injection, schedule: Q01DX009 (ip), vehicle: Klucel (hydroxypropylcellulose) (HPC)): 0 of 6
- survivor count (dose: 300.0 mg/kg/injection, schedule: Q01DX001 (ip), vehicle: other): 1 of 6

SMILES: C1CCN(CN2CCCC2)C1
- survivor count (dose: 100.0 mg/kg/injection, schedule: Q01DX009 (ip), vehicle: saline): 4 of 6
- survivor count [5]: 1 of 6
- survivor count [6]: 0 of 6

SMILES: OC/C=C/c1cccs1
- survivor count (dose: 400.0 mg/kg/injection, schedule: Q04DX002 (ip), vehicle: saline): 0 of 3

SMILES: Nc1nnc(-c2ccccc2)s1
- survivor count (dose: 100.0 mg/kg/injection, schedule: Q04DX003 (ip), vehicle: Klucel (hydroxypropylcellulose) (HPC)): 6 of 6
- survivor count (dose: 200.0 mg/kg/injection, schedule: Q04DX003 (ip), vehicle: Klucel (hydroxypropylcellulose) (HPC)): 6 of 6
- survivor count (dose: 400.0 mg/kg/injection, schedule: Q04DX003 (ip), vehicle: Klucel (hydroxypropylcellulose) (HPC)): 0 of 6

SMILES: c1ccc(N(c2ccccc2)N(c2ccccc2)c2ccccc2)cc1
- survivor count (dose: 25.0 mg/kg/injection, schedule: Q01DX009 (ip), vehicle: saline): 6 of 6
- survivor count (dose: 50.0 mg/kg/injection, schedule: Q01DX009 (ip), vehicle: saline): 6 of 6
- survivor count (dose: 100.0 mg/kg/injection, schedule: Q04DX003 (ip), vehicle: saline): 6 of 6
- survivor count (dose: 200.0 mg/kg/injection, schedule: Q04DX003 (ip), vehicle: saline): 6 of 6
- survivor count [6]: 6 of 6

SMILES: O=NN(CCCl)C(=O)Nc1cccc([N+](=O)[O-])c1
- T/C (dose: 8.0 mg/kg/injection, schedule: Q01DX001 (ip), vehicle: carboxymethylcellulose (CMC)): 143 % of control
- survivor count (dose: 93.0 mg/kg/injection, schedule: Q01DX001 (ip), vehicle: carboxymethylcellulose (CMC)): 4 of 6
- survivor count (dose: 187.0 mg/kg/injection, schedule: Q01DX001 (ip), vehicle: carboxymethylcellulose (CMC)): 0 of 6
- survivor count (dose: 375.0 mg/kg/injection, schedule: Q01DX001 (ip), vehicle: carboxymethylcellulose (CMC)): 0 of 6

SMILES: C=C(C)C1(Cc2ccccc2)C(=O)NC(=S)NC1=O
- survivor count (dose: 18.75 mg/kg/injection, schedule: Q01DX001 (ip), vehicle: saline): 3 of 6
- survivor count [1]: 3 of 6
- survivor count (dose: 37.5 mg/kg/injection, schedule: Q01DX001 (ip), vehicle: saline): 0 of 6
- survivor count [2]: 0 of 6
- survivor count [7]: 0 of 6 (3×)
- survivor count [8]: 0 of 6 (3×)
- survivor count [9]: 0 of 6 (3×)

SMILES: CCc1ccccc1NC(=O)Nc1nccs1
- survivor count (dose: 400.0 mg/kg/injection, schedule: Q01DX009 (ip), vehicle: Klucel (hydroxypropylcellulose) (HPC)): 2 of 6

SMILES: CCCCCCCCCCCCNNC(=O)OCCO
- survivor count [6]: 1 of 6

SMILES: CCOC(=O)C1C2C=CC=CC(=O)C21 (stereo unspecified)
- survivor count (dose: 400.0 mg/kg/injection, schedule: Q01DX009 (ip), vehicle: other): 3 of 6

SMILES: CC(C)(C)N1CCOCC1
- survivor count (dose: 150.0 mg/kg/injection, schedule: Q01DX009 (ip), vehicle: saline with Tween-80): 6 of 6
- survivor count (dose: 225.0 mg/kg/injection, schedule: Q01DX009 (ip), vehicle: saline with Tween-80): 6 of 6
- survivor count (dose: 335.0 mg/kg/injection, schedule: Q01DX009 (ip), vehicle: saline with Tween-80): 6 of 6

SMILES: Cc1cc(C)c2c(c1)C(=O)C(=O)c1cc(C)cc(C)c1-2
- T/C (dose: 200.0 mg/kg/injection, schedule: Q04DX002 (ip), vehicle: Klucel (hydroxypropylcellulose) (HPC)): 132 % of control

SMILES: COc1ccc2[nH]c(-c3ccccc3)c(-c3ccccc3)c2c1
- survivor count [4]: 5 of 6
- survivor count (dose: 400.0 mg/kg/injection, schedule: Q01DX009 (ip), vehicle: saline with Tween-80): 5 of 6
